Publication PMC7185134
Results are given in words; binding and its absence hold for the method and conditions named. In cells and extracts the contact can be indirect. Some binding calls cover weakened binding; strength is not graded here.

Chains of the proteins cited; added tags and fusions are not shown. Residues count along the entry.
UniProt P30405, residues 30-207: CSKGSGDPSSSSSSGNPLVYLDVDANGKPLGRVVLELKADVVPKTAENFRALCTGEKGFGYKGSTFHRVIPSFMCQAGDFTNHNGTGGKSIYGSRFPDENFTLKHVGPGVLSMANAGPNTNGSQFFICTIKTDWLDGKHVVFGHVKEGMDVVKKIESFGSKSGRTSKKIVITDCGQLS

Target: cyclophilin-D (CypD) (human (endogenous in T-HESC)) (UniProt P30405)
Experiment: co-IP; Mito-IP: mitochondrial lysates (400 μg) of T-HESC cells after OGDR, with or without GRh3 (10 μM, 2h) pretreatment; pre-cleared, anti-CypD antibody, Western blot for p53 and ANT-1

binding: binds
B1: adenine nucleotide translocator-1 (ANT-1) (protein, UniProt P12235 1-298)
chain: MGDHAWSFLKDFLAGGVAAAVSKTAVAPIERVKLLLQVQHASKQISAEKQYKGIIDCVVRIPKEQGFLSFWRGNLANVIRYFPTQALNFAFKDKYKQLFLGGVDRHKQFWRYFAGNLASGGAAGATSLCFVYPLDFARTRLAADVGKGAAQREFHGLGDCIIKIFKSDGLRGLYQGFNVSVQGIIIYRAAYFGVYDTAKGMLPDPKNVHIFVSWMIAQSVTAVAGLVSYPFDTVRRRMMMQSGRKGADIMYTGTVDCWRKIAKDEGAKAFFKGAWSNVLRGMGGAFVLVLYDEIKKYV
